Test results published in article PMC8673838, “MCPH1 inhibits Condensin II during interphase by regulating its SMC2-Kleisin interface” (eLife, 2021).

Target: T1, MCPH1 196-435-MBP (Homo sapiens) (UniProt Q8NEM0)
T1 sequence (looked up): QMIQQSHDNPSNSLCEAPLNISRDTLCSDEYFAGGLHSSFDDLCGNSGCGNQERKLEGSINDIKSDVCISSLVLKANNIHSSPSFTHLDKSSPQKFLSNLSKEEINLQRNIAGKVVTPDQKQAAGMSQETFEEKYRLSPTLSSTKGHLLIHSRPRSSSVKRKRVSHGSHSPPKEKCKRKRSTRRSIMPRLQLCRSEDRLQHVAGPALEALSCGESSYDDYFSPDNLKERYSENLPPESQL
Assay: EMSA
Conditions: 50 nM DNA, higher concentration than 1-435 needed for complete shift; EMSA with 50 nM 5'-Cy5 50 bp dsDNA; EMSA buffer; recombinant protein; residues 196-435; protein details: His6 and MBP (named C-terminal MBP in Fig 7); label: 5' Cy5

“CTGTCACACCCTGTCACACCCTGTCACACCCTGTCACACCCTGTCACACC (double strand) [50 bp dsDNA]”: binds more weakly.

Weaker means in comparison with the reference protein, sequence or condition of that experiment. Tags and fusion partners may be left off the protein sequences shown.
